Laboratory results as given in PubChem BioAssay AID2685 (National Center for Advancing Translational Sciences (NCATS), 2010).
The other results are listed elsewhere or left out. The main result of the screen is listed elsewhere. These columns were measured beside it and carry no call. Most of these compounds were active or inconclusive in the main read-out, so they are no random draw. Words in brackets tell the shape of the fitted curve; partial curves, single points and poor fits give uncertain potencies.

Assay: qHTS Assay for Lipid Storage Modulators in Drosophila S3 Cells;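 for cell number change: cells counted by Cell Tracker Red CMTPX staining in the red channel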
Details: BODIPY lipid droplet fluorescence, 18-24 h; for cell number change: measured here: cell count max response, cells fed with added oleic acid
In short: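 Drosophila S3 cells loaded with oleic acid (400 uM, as added) and compounds at several concentrations; lipid droplets imaged by 488-nm laser-scanning cytometry, 500–530 nm intensity and object ratio to cell channel. Percent activity normalized to 20 uM Triacsin C.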

[1] = measured here: cell number channel AC50, cells fed with added oleic acid
[2] = measured here: lipid fluorescence (Fed channel) AC50, cells fed with added oleic acid

Row | Structure (SMILES) | cell number change [%] | AC50 [1] | AC50 [2]
1 | Cc1ccccc1OP(N)(=O)Oc1ccccc1C | 26 | 4.11 µM [rising, full curve, poor fit] | 
2 | O=C(c1ccccc1F)c1cn(Cc2ccccc2)c2ccccc12 | -17.2 |  | 
3 | Cc1ccc(C)c(NC(=O)CCNC(=O)N2C[C@H]3C[C@@H](C2)c2cccc(=O)n2C3)c1 |  | 6.51 µM [rising, single point] | 29.1 µM [rising, single point]
4 | O=C1NC(=O)N(Cc2ccco2)C(=O)/C1=C/c1ccc(-c2cccc([N+](=O)[O-])c2)o1 | -35.1 | 29.1 µM [falling, partial curve] | 
5 | CC(=O)OC1C2CCC1C(N1CCCC1)CC2 (configuration not stated) | -50.1 | 25.9 µM [falling, partial curve, poor fit] | 29.1 µM [falling, partial curve]
6 | O=C(Cc1ccccc1)OC(COCc1ccccc1)CN1CCOCC1 (configuration not stated) | -21 | 0.00461 µM [falling, full curve, poor fit] | 
7 | CC(Cc1cccs1)NCc1ccccc1 (configuration not stated) | -20.3 | 5.8 µM [falling, single point] | 4.61 µM [falling, partial curve, poor fit]
8 | O=C(COC(=O)Cc1ccccc1)Nc1cc(S(=O)(=O)N2CCCCC2)ccc1Cl | -81.9 | 29.1 µM [falling, single point] | 16.4 µM [rising, single point]
9 | CCCCCCCC(=O)OCC(O)CO (configuration not stated) | 32.2 | 14.6 µM [rising, partial curve, poor fit] | 0.366 µM [rising, full curve, poor fit]
10 | COC(=O)C1=C(c2ccc(F)cc2F)C[C@@H]2CC[C@H]1N2C(=O)N1CCC(O)CC1 | -2.15 |  | 0.092 µM [rising, single point]
11 | CN1c2ccc([N+](=O)[O-])cc2CC2(C(=O)NC(=O)N(c3ccc(Br)cc3)C2=O)C1c1ccccc1 (configuration not stated) | -12.2 |  | 16.4 µM [falling, single point]
12 | Cc1cc(/C=C2\C(=O)NC(=O)N(c3cccc(F)c3)C2=O)c(C)n1-c1ccc(C(=O)O)c(Cl)c1 | -1.57 |  | 
13 | CCCC1(CCC)C(=O)NC(=NCc2ccccc2)NC1=O | 4 |  | 0.13 µM [falling, full curve, poor fit]
14 | COc1ccc(NC(=O)Cn2c(=O)oc3ccccc32)cc1 |  | 13 µM [rising, single point] | 
15 | O=C1CSC2(CN3CCC2CC3)N1 (configuration not stated) | -32.8 | 32.6 µM [falling, single point] | 10.3 µM [falling, partial curve]

Numbers 6 to 7 from above:
Row | Structure (SMILES) | cell number change [%] | AC50 [1] | AC50 [2]
6 | O=C(Cc1ccccc1)OC(COCc1ccccc1)CN1CCOCC1 (configuration not stated) | -21 | 0.00461 µM [falling, full curve, poor fit] | 
7 | CC(Cc1cccs1)NCc1ccccc1 (configuration not stated) | -20.3 | 5.8 µM [falling, single point] | 4.61 µM [falling, partial curve, poor fit]
